# No constants are given. Whether binding was seen depends on the method and setting. In cells and extracts the contact can be indirect. A yes stands for co-enrichment or nearness to the bait. Other partners may have been found.
# Amino acid sequences for entries named in this document (tags omitted).
# UniProt Q96PV6: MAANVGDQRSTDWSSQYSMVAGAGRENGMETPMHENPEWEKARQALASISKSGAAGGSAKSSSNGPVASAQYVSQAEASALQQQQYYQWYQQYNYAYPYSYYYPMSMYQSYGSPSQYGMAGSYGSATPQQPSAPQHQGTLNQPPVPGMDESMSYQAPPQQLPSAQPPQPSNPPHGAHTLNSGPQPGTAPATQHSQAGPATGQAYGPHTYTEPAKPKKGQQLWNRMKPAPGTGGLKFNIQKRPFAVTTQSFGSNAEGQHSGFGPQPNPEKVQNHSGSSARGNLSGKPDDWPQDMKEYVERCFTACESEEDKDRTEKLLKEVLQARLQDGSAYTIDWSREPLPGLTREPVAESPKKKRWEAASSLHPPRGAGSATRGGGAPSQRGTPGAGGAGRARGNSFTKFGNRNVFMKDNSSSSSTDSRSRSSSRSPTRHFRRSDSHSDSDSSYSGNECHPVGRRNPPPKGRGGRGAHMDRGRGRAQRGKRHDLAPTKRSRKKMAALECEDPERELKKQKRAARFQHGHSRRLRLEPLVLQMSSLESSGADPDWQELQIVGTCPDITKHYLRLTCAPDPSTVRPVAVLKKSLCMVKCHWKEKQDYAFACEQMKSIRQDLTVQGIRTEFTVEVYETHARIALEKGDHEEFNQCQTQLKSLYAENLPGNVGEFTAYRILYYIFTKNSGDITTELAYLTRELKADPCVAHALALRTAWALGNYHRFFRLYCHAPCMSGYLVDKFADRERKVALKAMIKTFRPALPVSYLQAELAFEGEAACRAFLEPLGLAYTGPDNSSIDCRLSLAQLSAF
# UniProt O75643: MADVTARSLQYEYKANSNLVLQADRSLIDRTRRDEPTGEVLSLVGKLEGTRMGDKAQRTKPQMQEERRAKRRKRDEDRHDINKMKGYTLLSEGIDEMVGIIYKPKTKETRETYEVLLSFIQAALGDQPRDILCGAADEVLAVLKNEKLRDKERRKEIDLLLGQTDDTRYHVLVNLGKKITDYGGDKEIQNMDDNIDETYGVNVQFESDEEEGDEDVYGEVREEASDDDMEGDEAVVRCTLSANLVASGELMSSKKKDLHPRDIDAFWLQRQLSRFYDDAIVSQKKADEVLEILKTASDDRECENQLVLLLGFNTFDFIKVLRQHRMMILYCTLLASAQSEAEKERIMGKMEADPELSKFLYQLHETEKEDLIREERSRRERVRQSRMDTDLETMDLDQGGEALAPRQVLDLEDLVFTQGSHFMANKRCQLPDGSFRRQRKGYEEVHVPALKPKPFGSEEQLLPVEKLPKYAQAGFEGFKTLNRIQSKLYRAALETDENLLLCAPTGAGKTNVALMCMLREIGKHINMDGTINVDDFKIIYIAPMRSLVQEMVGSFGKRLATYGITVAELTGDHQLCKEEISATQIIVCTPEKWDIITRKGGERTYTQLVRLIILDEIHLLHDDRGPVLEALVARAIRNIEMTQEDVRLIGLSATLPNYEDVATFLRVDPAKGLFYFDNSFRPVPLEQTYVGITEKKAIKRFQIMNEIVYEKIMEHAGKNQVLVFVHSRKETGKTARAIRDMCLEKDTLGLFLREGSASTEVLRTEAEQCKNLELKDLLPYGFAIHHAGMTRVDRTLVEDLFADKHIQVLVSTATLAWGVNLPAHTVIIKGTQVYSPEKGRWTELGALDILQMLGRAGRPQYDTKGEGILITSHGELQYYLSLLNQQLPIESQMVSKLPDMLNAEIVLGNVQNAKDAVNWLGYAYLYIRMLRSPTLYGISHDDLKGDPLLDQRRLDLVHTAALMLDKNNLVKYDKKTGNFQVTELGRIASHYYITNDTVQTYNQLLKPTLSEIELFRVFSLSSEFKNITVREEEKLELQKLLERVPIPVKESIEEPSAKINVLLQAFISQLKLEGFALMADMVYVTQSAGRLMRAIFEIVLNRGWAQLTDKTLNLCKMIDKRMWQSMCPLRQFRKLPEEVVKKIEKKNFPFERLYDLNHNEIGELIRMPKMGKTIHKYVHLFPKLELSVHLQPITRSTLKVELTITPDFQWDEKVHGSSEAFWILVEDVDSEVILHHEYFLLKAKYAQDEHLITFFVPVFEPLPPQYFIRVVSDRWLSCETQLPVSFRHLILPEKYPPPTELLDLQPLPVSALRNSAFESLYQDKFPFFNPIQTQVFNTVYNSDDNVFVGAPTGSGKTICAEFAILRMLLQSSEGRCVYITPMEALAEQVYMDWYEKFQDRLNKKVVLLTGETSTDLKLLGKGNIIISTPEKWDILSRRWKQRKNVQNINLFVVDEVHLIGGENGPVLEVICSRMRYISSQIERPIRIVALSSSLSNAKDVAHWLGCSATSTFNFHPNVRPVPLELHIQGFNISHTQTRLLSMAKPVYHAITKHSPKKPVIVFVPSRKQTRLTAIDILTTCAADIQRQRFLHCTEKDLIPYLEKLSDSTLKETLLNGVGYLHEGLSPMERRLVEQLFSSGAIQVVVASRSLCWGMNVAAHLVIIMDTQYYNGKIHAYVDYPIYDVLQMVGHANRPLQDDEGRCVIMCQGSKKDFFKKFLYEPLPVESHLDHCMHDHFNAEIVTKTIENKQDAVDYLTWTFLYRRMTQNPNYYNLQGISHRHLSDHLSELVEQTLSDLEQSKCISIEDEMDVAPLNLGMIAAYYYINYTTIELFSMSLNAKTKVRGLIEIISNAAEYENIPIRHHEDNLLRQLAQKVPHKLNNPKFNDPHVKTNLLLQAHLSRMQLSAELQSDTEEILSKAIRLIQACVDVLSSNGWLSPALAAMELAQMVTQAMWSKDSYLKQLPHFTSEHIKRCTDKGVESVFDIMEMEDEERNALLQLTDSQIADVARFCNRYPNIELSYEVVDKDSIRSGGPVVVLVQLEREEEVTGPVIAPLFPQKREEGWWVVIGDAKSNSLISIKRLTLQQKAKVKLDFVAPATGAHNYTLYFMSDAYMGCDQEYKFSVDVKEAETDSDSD
# B1: U2AF1 (endogenous) (protein, UniProt Q01081 1-240)
# chain: MAEYLASIFGTEKDKVNCSFYFKIGACRHGDRCSRLHNKPTFSQTIALLNIYRNPQNSSQSADGLRCAVSDVEMQEHYDEFFEEVFTEMEEKYGEVEEMNVCDNLGDHLVGNVYVKFRREEDAEKAVIDLNNRWFNGQPIHAELSPVTDFREACCRQYEMGECTRGGFCNFMHLKPISRELRRELYGRRRKKHRSRSRSRERRSRSRDRGRGGGGGGGGGGGGRERDRRRSRDRERSGRF
# B2: THRAP3 (endogenous) (protein, UniProt Q9Y2W1 1-955)
# chain: MSKTNKSKSGSRSSRSRSASRSRSRSFSKSRSRSRSLSRSRKRRLSSRSRSRSYSPAHNRERNHPRVYQNRDFRGHNRGYRRPYYFRGRNRGFYPWGQYNRGGYGNYRSNWQNYRQAYSPRRGRSRSRSPKRRSPSPRSRSHSRNSDKSSSDRSRRSSSSRSSSNHSRVESSKRKSAKEKKSSSKDSRPSQAAGDNQGDEAKEQTFSGGTSQDTKASESSKPWPDATYGTGSASRASAVSELSPRERSPALKSPLQSVVVRRRSPRPSPVPKPSPPLSSTSQMGSTLPSGAGYQSGTHQGQFDHGSGSLSPSKKSPVGKSPPSTGSTYGSSQKEESAASGGAAYTKRYLEEQKTENGKDKEQKQTNTDKEKIKEKGSFSDTGLGDGKMKSDSFAPKTDSEKPFRGSQSPKRYKLRDDFEKKMADFHKEEMDDQDKDKAKGRKESEFDDEPKFMSKVIGANKNQEEEKSGKWEGLVYAPPGKEKQRKTEELEEESFPERSKKEDRGKRSEGGHRGFVPEKNFRVTAYKAVQEKSSSPPPRKTSESRDKLGAKGDFPTGKSSFSITREAQVNVRMDSFDEDLARPSGLLAQERKLCRDLVHSNKKEQEFRSIFQHIQSAQSQRSPSELFAQHIVTIVHHVKEHHFGSSGMTLHERFTKYLKRGTEQEAAKNKKSPEIHRRIDISPSTFRKHGLAHDEMKSPREPGYKAEGKYKDDPVDLRLDIERRKKHKERDLKRGKSRESVDSRDSSHSRERSAEKTEKTHKGSKKQKKHRRARDRSRSSSSSSQSSHSYKAEEYTEETEEREESTTGFDKSRLGTKDFVGPSERGGGRARGTFQFRARGRGWGRGNYSGNNNNNSNNDFQKRNREEEWDPEYTPKSKKYYLHDDREGEGSDKWVSRGRGRGAFPRGRGRFMFRKSSTSPKWAHDKFSGEEGEIEDDESGTENREEKDNIQPTTE
# B3: NONO (endogenous) (protein, UniProt Q15233 1-471)
# chain: MQSNKTFNLEKQNHTPRKHHQHHHQQQHHQQQQQQPPPPPIPANGQQASSQNEGLTIDLKNFRKPGEKTFTQRSRLFVGNLPPDITEEEMRKLFEKYGKAGEVFIHKDKGFGFIRLETRTLAEIAKVELDNMPLRGKQLRVRFACHSASLTVRNLPQYVSNELLEEAFSVFGQVERAVVIVDDRGRPSGKGIVEFSGKPAARKALDRCSEGSFLLTTFPRPVTVEPMDQLDDEEGLPEKLVIKNQQFHKEREQPPRFAQPGSFEYEYAMRWKALIEMEKQQQDQVDRNIKEAREKLEMEMEAARHEHQVMLMRQDLMRRQEELRRMEELHNQEVQKRKQLELRQEEERRRREEEMRRQQEEMMRRQQEGFKGTFPDAREQEIRMGQMAMGGAMGINNRGAMPPAPVPAGTPAPPGPATMMPDGTLGLTPPTTERFGQAATMEGIGAIGGTPPAFNRAAPGAEFAPNKRRRY
# B4: THOC1 (endogenous) (protein, UniProt Q96FV9 1-657)
# chain: MSPTPPLFSLPEARTRFTKSTREALNNKNIKPLLSTFSQVPGSENEKKCTLDQAFRGILEEEIINHSSCENVLAIISLAIGGVTEGICTASTPFVLLGDVLDCLPLDQCDTIFTFVEKNVATWKSNTFYSAGKNYLLRMCNDLLRRLSKSQNTVFCGRIQLFLARLFPLSEKSGLNLQSQFNLENVTVFNTNEQESTLGQKHTEDREEGMDVEEGEMGDEEAPTTCSIPIDYNLYRKFWSLQDYFRNPVQCYEKISWKTFLKYSEEVLAVFKSYKLDDTQASRKKMEELKTGGEHVYFAKFLTSEKLMDLQLSDSNFRRHILLQYLILFQYLKGQVKFKSSNYVLTDEQSLWIEDTTKSVYQLLSENPPDGERFSKMVEHILNTEENWNSWKNEGCPSFVKERTSDTKPTRIIRKRTAPEDFLGKGPTKKILMGNEELTRLWNLCPDNMEACKSETREHMPTLEEFFEEAIEQADPENMVENEYKAVNNSNYGWRALRLLARRSPHFFQPTNQQFKSLPEYLENMVIKLAKELPPPSEEIKTGEDEDEEDNDALLKENESPDVRRDKPVTGEQIEVFANKLGEQWKILAPYLEMKDSEIRQIECDSEDMKMRAKQLLVAWQDQEGVHATPENLINALNKSGLSDLAESLTNDNETNS
# Target: ZZ-LENG8-3xFLAG (human) (UniProt Q96PV6)
# Test: affinity purification with mass spectrometry
row,Molecule,binding
1,SNRNP200 (endogenous) (from UniProt O75643 1-2136),binds
2,B1,binds
3,B2,binds
4,B3,binds
5,B4,binds

# From paper doi:10.1101/2021.07.17.452750
